# In the supplement of paper PMC8728848:
# The other results are listed elsewhere or left out.
# B1: GS7807F-bth-514-18-514 (Bacteroides thetaiotaomicron) (protein)
# chain: AGSCTGNFEEYNTNQFQIHEADPSTLMKSMIETIVNIQQNDSQMMDQMVGQLGGYLTCANVWSGTNFGTFNQSDAWNAGPWNTNFEKIYGNFFQIQEATNESGHYYAFARMIRAITMLRVADCYGPMPYSQVKKGNFYVAYDTEEQVYKNIMEDFASAANVLYNYYKDTNGNAPLASNDPVFSGNYANWARLANSMRLRVAIRISTAYPEMAKENAEAAASHEAGLIEANNDNAMMDCGSQTNPYQLAAVSWGDLRVNANIVDYMNGYGDPRMSKYFNHSTFTGHTQEYVGMRSGEDGFAKSDVAGYSIPAITGTSKLLVFCAAETAFLRAEGKLKNWSVGNKSAKEYYEEGIKLSMEQYGTTMPDNYLTNTEKPTVSHNNDPRGHAYTISNTVAVAWNDNNEEENLQRIITQKWIANYPLGLEAWAEYRRTGYPELYPCIDNLSPSGVDSKRGMRRLRFPYTEVQNNHSNYQQGVSYLKNGGPDNEATDLSWGKTN
# Assays:
# Experiment in all cases: glycan array binding signal (z-score within array); higher = stronger binding
# Settings in all cases: glycan notation: IUPAC condensed, linker removed
# [1] = biological target: Fuc(a1-3)[Gal3S(b1-4)]GlcNAc6S
# Summary of the method: (§1)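 Columns mapping to the same glycan were averaged after glycan names were converted to IUPAC-condensed notation. The data come from 3228 arrays in the Consortium for Functional Glycomics database, limited to those with an available protein sequence. Binding is reported as a within-array Z-score averaged across arrays of one protein sequence and across linkers.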
# [2] = biological target: Fuc(a1-3)[GalNAc(b1-4)]GlcNAc
# Summary of the method: as §1
# [3] = biological target: Fuc(a1-3)[GalNAc(b1-4)]GlcNAc6S
# Summary of the method: as §1
# [4] = biological target: Fuc(a1-4)GlcNAc
# Summary of the method: as §1
# [5] = biological target: Fuc(b1-3)GlcNAc
# Summary of the method: as §1
# [6] = biological target: Gal(a1-2)Gal
# Summary of the method: as §1
# [7] = biological target: Gal(a1-3)Gal
# Summary of the method: as §1
# [8] = biological target: Gal(a1-3)Gal(b1-3)GlcNAc
# Summary of the method: as §1
# [9] = biological target: Gal(a1-3)Gal(b1-3)GlcNAc(b1-2)Man
# Summary of the method: as §1
# [10] = biological target: Gal(a1-3)Gal(b1-3)GlcNAc(b1-2)Man(a1-3)[Gal(a1-3)Gal(b1-3)GlcNAc(b1-2)Man(a1-6)]Man(b1-4)GlcNAc(b1-4)GlcNAc
# Summary of the method: as §1
# [11] = biological target: Gal(a1-3)Gal(b1-3)GlcNAc(b1-3)GalNAc
# Summary of the method: as §1
# [12] = biological target: Gal(a1-3)Gal(b1-3)GlcNAc(b1-6)GalNAc
# Summary of the method: as §1
# [13] = biological target: Gal(a1-3)Gal(b1-3)[Fuc(a1-4)]GlcNAc(b1-2)Man(a1-3)[Gal(a1-3)Gal(b1-3)[Fuc(a1-4)]GlcNAc(b1-2)Man(a1-6)]Man(b1-4)GlcNAc(b1-4)GlcNAc
# Summary of the method: as §1
# [14] = biological target: Gal(a1-3)Gal(b1-4)Glc
# Summary of the method: as §1
# [15] = biological target: Gal(a1-3)Gal(b1-4)GlcNAc
# Summary of the method: as §1
# [16] = biological target: Gal(a1-3)Gal(b1-4)GlcNAc(b1-2)Man
# Summary of the method: as §1
# [17] = biological target: Gal(a1-3)Gal(b1-4)GlcNAc(b1-2)Man(a1-3)[Gal(a1-3)Gal(b1-4)GlcNAc(b1-2)Man(a1-6)]Man(b1-4)GlcNAc(b1-4)GlcNAc
# Summary of the method: as §1
# [18] = biological target: Gal(a1-3)Gal(b1-4)GlcNAc(b1-3)GalNAc
# Summary of the method: as §1
# [19] = biological target: Gal(a1-3)Gal(b1-4)GlcNAc(b1-6)GalNAc
# Summary of the method: as §1
# [20] = biological target: Gal(a1-3)Gal(b1-4)[Fuc(a1-3)]GlcNAc
# Summary of the method: as §1
# [21] = biological target: Gal(a1-3)Gal(b1-4)[Fuc(a1-3)]GlcNAc(b1-2)Man(a1-3)[Gal(a1-3)Gal(b1-4)[Fuc(a1-3)]GlcNAc(b1-2)Man(a1-6)]Man(b1-4)GlcNAc(b1-4)GlcNAc
# Summary of the method: as §1
# [22] = biological target: Gal(a1-3)GalNAc
# Summary of the method: as §1
# [23] = biological target: Gal(a1-3)[Gal(a1-4)]Gal(b1-4)GlcNAc
# Summary of the method: as §1
# [24] = biological target: Gal(a1-4)Gal(b1-3)GlcNAc(b1-2)Man(a1-3)[Gal(a1-4)Gal(b1-3)GlcNAc(b1-2)Man(a1-6)]Man(b1-4)GlcNAc(b1-4)GlcNAc
# Summary of the method: as §1
# [25] = biological target: Gal(a1-4)Gal(b1-4)Glc
# Summary of the method: as §1
# [26] = biological target: Gal(a1-4)Gal(b1-4)GlcNAc
# Summary of the method: as §1
# [27] = biological target: Gal(a1-4)Gal(b1-4)GlcNAc(b1-2)Man(a1-3)[Gal(a1-4)Gal(b1-4)GlcNAc(b1-2)Man(a1-6)]Man(b1-4)GlcNAc(b1-4)GlcNAc
# Summary of the method: as §1
# [28] = biological target: Gal(a1-4)Gal(b1-4)GlcNAc(b1-3)Gal(b1-4)Glc
# Summary of the method: as §1
# [29] = biological target: Gal(a1-4)GlcNAc
# Summary of the method: as §1
# [30] = biological target: Gal(a1-6)Glc
# Summary of the method: as §1
# [31] = biological target: Gal(b1-2)Gal
# Summary of the method: as §1
# [32] = biological target: Gal(b1-3)Gal
# Summary of the method: as §1
# [33] = biological target: Gal(b1-3)Gal(b1-4)GlcNAc
# Summary of the method: as §1
# [34] = biological target: Gal(b1-3)GalNAc
# Summary of the method: as §1
# [35] = biological target: Gal(b1-3)GalNAc(a1-3)[Fuc(a1-2)]Gal(b1-4)Glc
# Summary of the method: as §1
# [36] = biological target: Gal(b1-3)GalNAc(a1-3)[Fuc(a1-2)]Gal(b1-4)GlcNAc
# Summary of the method: as §1
# [37] = biological target: Gal(b1-3)GalNAc(b1-3)Gal
# Summary of the method: as §1
binder,measurement,setting,value
B1,glycan array binding signal (z-score),[1],-0.018
same,glycan array binding signal (z-score),[2],-0.675
same,glycan array binding signal (z-score),[3],-0.739
same,glycan array binding signal (z-score),[4],-0.589
same,glycan array binding signal (z-score),[5],-0.837
same,glycan array binding signal (z-score),[6],-0.45
same,glycan array binding signal (z-score),[7],0.854
same,glycan array binding signal (z-score),[8],0.018
same,glycan array binding signal (z-score),[9],2.61
same,glycan array binding signal (z-score),[10],0.958
same,glycan array binding signal (z-score),[11],-0.446
same,glycan array binding signal (z-score),[12],0.449
same,glycan array binding signal (z-score),[13],2.27
same,glycan array binding signal (z-score),[14],0.824
same,glycan array binding signal (z-score),[15],0.823
same,glycan array binding signal (z-score),[16],-0.58
same,glycan array binding signal (z-score),[17],1.17
same,glycan array binding signal (z-score),[18],0.812
same,glycan array binding signal (z-score),[19],-0.492
same,glycan array binding signal (z-score),[20],-0.54
same,glycan array binding signal (z-score),[21],0.615
same,glycan array binding signal (z-score),[22],-0.793
same,glycan array binding signal (z-score),[23],2.02
same,glycan array binding signal (z-score),[24],0.06
same,glycan array binding signal (z-score),[25],1.96
same,glycan array binding signal (z-score),[26],0.384
same,glycan array binding signal (z-score),[27],2.17
same,glycan array binding signal (z-score),[28],-0.367
same,glycan array binding signal (z-score),[29],-0.705
same,glycan array binding signal (z-score),[30],-0.466
same,glycan array binding signal (z-score),[31],-0.545
same,glycan array binding signal (z-score),[32],-0.099
same,glycan array binding signal (z-score),[33],0.501
same,glycan array binding signal (z-score),[34],0.72
same,glycan array binding signal (z-score),[35],1.32
same,glycan array binding signal (z-score),[36],0.382
same,glycan array binding signal (z-score),[37],1.13

# Already shown: an excerpt of the list.
binder,measurement,setting,value
B1,glycan array binding signal (z-score),[32],-0.099
same,glycan array binding signal (z-score),[33],0.501
